Laboratory results reported in article PMC8805157 (2021).
No constants are given. Whether binding was seen depends on the method and setting. For some assays here: Binding seen in cells or lysates may run through a third protein. Some results given as binding are weak or reduced against the parent protein; the word gives no strength. Sequences can lack the tags named with a protein.

Columns and labels:
[1] = target: T1, BD-Atg11 (wild type) (S. cerevisiae) (UniProt Q12527); test: two-hybrid; BD-Atg11 and mutants (bait) with AD-Atg19 (prey) in the MKO strain; growth on SMD -ura, -leu, -ade plates
T1 sequence: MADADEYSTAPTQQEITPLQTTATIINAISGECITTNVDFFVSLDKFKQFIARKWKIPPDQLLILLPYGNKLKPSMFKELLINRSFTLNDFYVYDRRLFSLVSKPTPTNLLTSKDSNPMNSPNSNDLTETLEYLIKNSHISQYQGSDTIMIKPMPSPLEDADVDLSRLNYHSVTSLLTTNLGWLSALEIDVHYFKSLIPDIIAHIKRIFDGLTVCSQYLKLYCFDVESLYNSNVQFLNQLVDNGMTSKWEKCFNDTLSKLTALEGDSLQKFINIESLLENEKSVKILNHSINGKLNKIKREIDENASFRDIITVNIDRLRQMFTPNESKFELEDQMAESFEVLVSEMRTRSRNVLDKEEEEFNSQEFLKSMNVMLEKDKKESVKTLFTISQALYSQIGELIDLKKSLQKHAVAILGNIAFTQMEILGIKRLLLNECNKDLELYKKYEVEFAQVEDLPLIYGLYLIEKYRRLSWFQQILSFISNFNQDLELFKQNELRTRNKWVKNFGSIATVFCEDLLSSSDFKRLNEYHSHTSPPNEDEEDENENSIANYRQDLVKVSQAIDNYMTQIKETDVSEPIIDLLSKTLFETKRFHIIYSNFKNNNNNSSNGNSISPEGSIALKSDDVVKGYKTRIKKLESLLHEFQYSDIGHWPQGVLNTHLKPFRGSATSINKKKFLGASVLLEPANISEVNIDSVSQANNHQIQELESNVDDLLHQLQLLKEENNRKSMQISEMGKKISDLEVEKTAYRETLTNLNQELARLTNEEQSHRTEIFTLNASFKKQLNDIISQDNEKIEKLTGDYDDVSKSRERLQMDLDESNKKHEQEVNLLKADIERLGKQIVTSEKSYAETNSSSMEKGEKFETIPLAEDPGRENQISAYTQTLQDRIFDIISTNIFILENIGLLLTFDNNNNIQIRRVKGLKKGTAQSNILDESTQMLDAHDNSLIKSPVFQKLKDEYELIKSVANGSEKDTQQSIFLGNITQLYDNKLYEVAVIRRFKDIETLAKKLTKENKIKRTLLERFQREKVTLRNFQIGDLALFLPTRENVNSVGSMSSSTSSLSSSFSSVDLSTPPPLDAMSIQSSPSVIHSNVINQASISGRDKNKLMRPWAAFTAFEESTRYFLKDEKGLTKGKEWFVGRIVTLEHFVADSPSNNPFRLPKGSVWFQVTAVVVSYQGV

[2] = target: T2, BD-Atg11 CTR (a.a. 854-1178) (S. cerevisiae) (UniProt Q12527); test: as above
T2 sequence: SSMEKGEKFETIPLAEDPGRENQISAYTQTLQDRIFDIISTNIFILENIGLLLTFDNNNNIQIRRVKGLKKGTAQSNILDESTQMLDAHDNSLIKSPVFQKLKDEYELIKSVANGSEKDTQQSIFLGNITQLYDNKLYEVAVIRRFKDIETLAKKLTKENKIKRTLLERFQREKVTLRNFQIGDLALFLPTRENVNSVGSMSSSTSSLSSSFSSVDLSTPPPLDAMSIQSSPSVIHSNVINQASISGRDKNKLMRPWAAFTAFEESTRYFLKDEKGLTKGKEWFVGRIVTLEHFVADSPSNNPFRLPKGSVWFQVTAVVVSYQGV

[3] = target: T1, BD-Atg11 (wild type) (S. cerevisiae); test: two-hybrid; BD-Atg11 mutants (bait) with AD-Atg19 (prey) in the WT Y2H strain PJ69-4A; plates
[4] = target: T2, BD-Atg11 CTR (a.a. 854-1178) (S. cerevisiae); test: as above
[5] = target: T1, BD-Atg11 (wild type) (S. cerevisiae); test: two-hybrid; quantitative Y2H assay in log-phase liquid cultures expressing BD-Atg11 mutants and AD-Atg19
[6] = target: T2, BD-Atg11 CTR (a.a. 854-1178) (S. cerevisiae); test: as above
PA-Atg19 (S. cerevisiae) = target: T3, PA-Atg19 (S. cerevisiae) (UniProt P35193); test: co-IP; PA-tagged bait (Atg9-PA or PA-Atg19) precipitated on IgG-Sepharose from spheroplast lysate; proteins overexpressed with a CUP1 promoter in an atg11∆ strain; GFP-Atg11 detected with anti-GFP
T3 sequence: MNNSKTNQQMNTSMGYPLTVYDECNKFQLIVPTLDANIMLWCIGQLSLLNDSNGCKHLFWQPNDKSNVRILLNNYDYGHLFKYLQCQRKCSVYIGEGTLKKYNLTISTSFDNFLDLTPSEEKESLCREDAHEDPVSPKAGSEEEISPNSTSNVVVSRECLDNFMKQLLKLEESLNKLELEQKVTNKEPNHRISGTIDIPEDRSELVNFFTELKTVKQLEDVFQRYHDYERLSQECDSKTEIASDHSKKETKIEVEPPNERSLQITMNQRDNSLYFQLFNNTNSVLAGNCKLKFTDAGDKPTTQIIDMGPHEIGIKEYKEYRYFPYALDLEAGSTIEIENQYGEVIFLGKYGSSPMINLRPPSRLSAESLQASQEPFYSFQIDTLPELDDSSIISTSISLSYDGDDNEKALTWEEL

Atg9-PA (S. cerevisiae) = target: T4, Atg9-PA (S. cerevisiae) (UniProt Q12142); test: as above
T4 sequence: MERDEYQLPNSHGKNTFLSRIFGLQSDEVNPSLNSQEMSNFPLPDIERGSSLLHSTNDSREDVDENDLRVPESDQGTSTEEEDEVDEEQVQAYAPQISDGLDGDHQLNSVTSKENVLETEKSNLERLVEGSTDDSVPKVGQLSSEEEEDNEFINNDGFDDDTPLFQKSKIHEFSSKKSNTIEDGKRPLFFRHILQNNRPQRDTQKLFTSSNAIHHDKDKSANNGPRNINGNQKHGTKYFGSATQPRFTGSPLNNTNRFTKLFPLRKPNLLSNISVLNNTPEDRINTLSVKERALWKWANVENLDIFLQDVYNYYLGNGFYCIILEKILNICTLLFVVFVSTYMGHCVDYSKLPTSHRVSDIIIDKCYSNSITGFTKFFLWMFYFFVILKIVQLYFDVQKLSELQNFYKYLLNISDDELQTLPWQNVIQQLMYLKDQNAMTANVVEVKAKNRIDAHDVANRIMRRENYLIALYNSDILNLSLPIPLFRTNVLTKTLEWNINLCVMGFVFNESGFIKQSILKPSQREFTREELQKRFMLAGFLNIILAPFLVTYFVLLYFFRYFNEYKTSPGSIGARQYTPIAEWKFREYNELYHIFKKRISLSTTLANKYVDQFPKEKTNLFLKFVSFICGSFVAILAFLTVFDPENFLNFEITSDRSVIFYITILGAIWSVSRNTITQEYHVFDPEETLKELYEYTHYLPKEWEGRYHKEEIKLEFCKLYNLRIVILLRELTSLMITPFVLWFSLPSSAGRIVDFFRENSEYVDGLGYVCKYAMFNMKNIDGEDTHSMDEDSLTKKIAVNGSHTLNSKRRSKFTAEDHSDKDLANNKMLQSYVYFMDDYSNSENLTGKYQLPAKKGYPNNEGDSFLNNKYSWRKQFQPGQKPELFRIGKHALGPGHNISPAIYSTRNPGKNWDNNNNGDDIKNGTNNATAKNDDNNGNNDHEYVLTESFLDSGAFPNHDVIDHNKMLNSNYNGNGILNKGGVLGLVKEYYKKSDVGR

Measured: binding

B1: AD-Atg19 (protein, UniProt P35193 1-415)
chain: T3 sequence
not listed: PA-Atg19 (S. cerevisiae) | Atg9-PA (S. cerevisiae)
binds: all other assays above

B2: GFP-Atg11 (wild type) (protein, UniProt Q12527 1-1178)
chain: T1 sequence
binds: PA-Atg19 (S. cerevisiae) | Atg9-PA (S. cerevisiae)
